# Results deposited as PubChem BioAssay AID1259254 (NCATS, 2017)
# Purpose: 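Finding genes that stop cells copying their DNA twice in one cycle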 (primary screen)
# Cell system: human HCT116 colorectal cancer cells
# Knock-down reagent: single siRNA against human genes
# Time to read-out: 3 days
# Measured: 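Nuclei stained with Hoechst and imaged; cell-cycle phase assigned by DNA content; G2 share scaled per plate, non-targeting siRNA 0%, GMNN siRNA 100%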
# Scale: G2 robust z-score and G2 cells, % of GMNN control: higher = more G2 cells, more excess DNA replication; raw share of cells in G2: higher = larger share of cells with G2 DNA content
# Active means: 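An siRNA counts as active if its G2 robust z-score lies at least 5 MADs above the screen median; here such calls match roughly 38% of GMNN control or more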
# Shown is an unselected part of about 59,000 deposited reagents. About 1,550 of them (2.6%) were called active. 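G2 share is only a proxy for re-replication; each gene was hit by three separate siRNAs, and active genes were retested.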 The raw values are shown without normalisation. Entries without a mark were called inactive. Reagents against one gene are numbered here. The record does not give: the amount of reagent.
Target gene,reagent no.,G2 robust z-score,"G2 cells, % of GMNN control",raw share of cells in G2 (%)
THEMIS (thymocyte selection associated),1,0.0276,3.16,4.86
THEMIS (thymocyte selection associated),2,-0.311,0.781,3.74
THEMIS (thymocyte selection associated),3,-1.12,-4.88,2.54
ZNF441 (zinc finger protein 441),1,-0.413,0.0614,3.11
ZNF441 (zinc finger protein 441),2,1.02,10.1,6.68
ZNF441 (zinc finger protein 441),3,-0.0274,2.77,4.5
FAAP24 (FA core complex associated protein 24),1,-0.107,2.22,5.02
FAAP24 (FA core complex associated protein 24),2,0.362,5.52,4.73
FAAP24 (FA core complex associated protein 24),3,0.381,5.65,4.72
TBCC (tubulin folding cofactor C),1,-0.384,0.263,5.25
TBCC (tubulin folding cofactor C),2,0.121,3.82,5.41
TBCC (tubulin folding cofactor C),3,-0.431,-0.0681,3.32
EIF4H (eukaryotic translation initiation factor 4H),1,1.69,14.9,11.9
EIF4H (eukaryotic translation initiation factor 4H),2,-1.19,-5.41,2.25
EIF4H (eukaryotic translation initiation factor 4H),3,9.67 (active),71,27.9
CLU (clusterin),1,0.00208,2.98,6.7
CLU (clusterin),2,-0.278,1.01,4.46
CLU (clusterin),3,3.47,27.4,14.2
ETNK1 (ethanolamine kinase 1),1,-0.332,0.635,5.79
ETNK1 (ethanolamine kinase 1),2,-0.604,-1.29,4.72
ETNK1 (ethanolamine kinase 1),3,0.82,8.74,6.48
TTLL12 (tubulin tyrosine ligase like 12),1,-0.337,0.593,5.22
TTLL12 (tubulin tyrosine ligase like 12),2,1.15,11,8.69
TTLL12 (tubulin tyrosine ligase like 12),3,0.0762,3.5,4.48
CCDC106 (coiled-coil domain containing 106),1,-0.148,1.93,5.28
CCDC106 (coiled-coil domain containing 106),2,-0.902,-3.38,2.19
CCDC106 (coiled-coil domain containing 106),3,-0.92,-3.5,2.52
CD36 (CD36 molecule (CD36 blood group)),1,0.0564,3.36,5.25
CD36 (CD36 molecule (CD36 blood group)),2,-0.0968,2.29,5.83
CD36 (CD36 molecule (CD36 blood group)),3,-0.667,-1.72,4.35
UNC93B2 (unc-93 homolog B2 (pseudogene)),1,-0.318,0.729,3.81
UNC93B2 (unc-93 homolog B2 (pseudogene)),2,-0.524,-0.722,4.49
UNC93B2 (unc-93 homolog B2 (pseudogene)),3,-0.618,-1.38,2.89
UNC93B2 (unc-93 homolog B2 (pseudogene)),4,-0.505,-0.587,2.92
UNC93B2 (unc-93 homolog B2 (pseudogene)),5,-0.488,-0.463,3.64
UNC93B2 (unc-93 homolog B2 (pseudogene)),6,0.0328,3.2,4.86

Records listed so far whose target name begins with F or f (3):
Target gene,reagent no.,G2 robust z-score,"G2 cells, % of GMNN control",raw share of cells in G2 (%)
FAAP24 (FA core complex associated protein 24),1,-0.107,2.22,5.02
FAAP24 (FA core complex associated protein 24),2,0.362,5.52,4.73
FAAP24 (FA core complex associated protein 24),3,0.381,5.65,4.72

Next results follow:
Target gene,reagent no.,G2 robust z-score,"G2 cells, % of GMNN control",raw share of cells in G2 (%)
SLC35B1,1,11.2 (active),81.5,42.2
SLC35B1,2,0.496,6.46,6.64
SLC35B1,3,0.802,8.61,6.54
"RAB21 (RAB21, member RAS oncogene family)",1,4.53,34.8,20.3
"RAB21 (RAB21, member RAS oncogene family)",2,-0.599,-1.25,3.74
"RAB21 (RAB21, member RAS oncogene family)",3,-0.532,-0.774,3.6
E4F1 (E4F transcription factor 1),1,-0.19,1.63,4.11
E4F1 (E4F transcription factor 1),2,0.764,8.34,8.75
E4F1 (E4F transcription factor 1),3,0.667,7.66,5.89
"RAB19 (RAB19, member RAS oncogene family)",1,-0.596,-1.22,4.48
"RAB19 (RAB19, member RAS oncogene family)",2,-0.863,-3.1,3.15
"RAB19 (RAB19, member RAS oncogene family)",3,0.491,6.42,8.68
GSTM5 (glutathione S-transferase mu 5),1,0.583,7.07,8.37
GSTM5 (glutathione S-transferase mu 5),2,-1.41,-6.95,1.65
GSTM5 (glutathione S-transferase mu 5),3,0.105,3.71,6.39
HIF1A (hypoxia inducible factor 1 subunit alpha),1,-0.0216,2.82,6.07
HIF1A (hypoxia inducible factor 1 subunit alpha),2,1.27,11.9,10.2
HIF1A (hypoxia inducible factor 1 subunit alpha),3,0.475,6.31,6.52
PAH (phenylalanine hydroxylase),1,-0.748,-2.3,4.33
PAH (phenylalanine hydroxylase),2,-0.471,-0.348,4.61
PAH (phenylalanine hydroxylase),3,-0.562,-0.985,2.86
CD37 (CD37 molecule),1,-0.666,-1.72,4.49
CD37 (CD37 molecule),2,5.87 (active),44.2,20.3
CD37 (CD37 molecule),3,0.935,9.55,7.26
MAD2L2 (mitotic arrest deficient 2 like 2),1,1.85,16,12.5
MAD2L2 (mitotic arrest deficient 2 like 2),2,3.78,29.5,16.3
MAD2L2 (mitotic arrest deficient 2 like 2),3,0.219,4.51,5.05
AGBL5 (AGBL carboxypeptidase 5),1,1.27,11.9,8.56
AGBL5 (AGBL carboxypeptidase 5),2,2.98,24,12.9
AGBL5 (AGBL carboxypeptidase 5),3,2.18,18.3,13.2
SH3BP4 (SH3 domain binding protein 4),1,0.589,7.11,7.8
SH3BP4 (SH3 domain binding protein 4),2,0.401,5.79,7.3
SH3BP4 (SH3 domain binding protein 4),3,-0.506,-0.592,3.49
FBXW2 (F-box and WD repeat domain containing 2),1,1.19,11.4,8.69
FBXW2 (F-box and WD repeat domain containing 2),2,-0.586,-1.15,3.44
FBXW2 (F-box and WD repeat domain containing 2),3,0.161,4.1,4.73
MRPS27 (mitochondrial ribosomal protein S27),1,1.61,14.3,10.6
MRPS27 (mitochondrial ribosomal protein S27),2,0.167,4.14,5.85
MRPS27 (mitochondrial ribosomal protein S27),3,-0.0752,2.44,4.09
POLR3GL (RNA polymerase III subunit GL),1,0.567,6.95,6.42
POLR3GL (RNA polymerase III subunit GL),2,-0.99,-4,2.27
POLR3GL (RNA polymerase III subunit GL),3,0.354,5.45,4.06
ZSWIM5 (zinc finger SWIM-type containing 5),1,-0.103,2.24,5.23
ZSWIM5 (zinc finger SWIM-type containing 5),2,-0.196,1.59,5.22
ZSWIM5 (zinc finger SWIM-type containing 5),3,1.53,13.7,7.37
MAP1B (microtubule associated protein 1B),1,0.133,3.9,4.48
MAP1B (microtubule associated protein 1B),2,0.355,5.47,7.47
MAP1B (microtubule associated protein 1B),3,-0.745,-2.28,4.57
RCBTB2 (RCC1 and BTB domain containing protein 2),1,0.96,9.72,7.44
RCBTB2 (RCC1 and BTB domain containing protein 2),2,-0.285,0.964,5.31
RCBTB2 (RCC1 and BTB domain containing protein 2),3,1.02,10.1,8.69
